# Publication doi:10.1101/2024.07.05.602170
# Amino acid sequences for entries named in this document (tags omitted). A change or cut given only in a name is not applied to a line headed by its entry. Chains listed by the source or under a name are the forms on record and can include a tag or linker.
# 0N4R wild-type human tau (P10636, form named): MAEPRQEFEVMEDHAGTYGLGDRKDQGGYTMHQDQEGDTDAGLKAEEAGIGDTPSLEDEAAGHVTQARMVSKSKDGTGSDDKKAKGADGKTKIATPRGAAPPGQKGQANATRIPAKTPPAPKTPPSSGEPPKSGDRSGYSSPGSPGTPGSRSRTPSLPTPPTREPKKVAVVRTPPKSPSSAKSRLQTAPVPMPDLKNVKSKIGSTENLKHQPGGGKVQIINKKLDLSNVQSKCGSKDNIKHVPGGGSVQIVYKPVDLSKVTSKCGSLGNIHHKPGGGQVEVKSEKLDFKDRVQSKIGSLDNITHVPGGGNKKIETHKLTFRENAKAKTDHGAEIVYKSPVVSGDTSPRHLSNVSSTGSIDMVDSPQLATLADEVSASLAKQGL
# UniProt O35465: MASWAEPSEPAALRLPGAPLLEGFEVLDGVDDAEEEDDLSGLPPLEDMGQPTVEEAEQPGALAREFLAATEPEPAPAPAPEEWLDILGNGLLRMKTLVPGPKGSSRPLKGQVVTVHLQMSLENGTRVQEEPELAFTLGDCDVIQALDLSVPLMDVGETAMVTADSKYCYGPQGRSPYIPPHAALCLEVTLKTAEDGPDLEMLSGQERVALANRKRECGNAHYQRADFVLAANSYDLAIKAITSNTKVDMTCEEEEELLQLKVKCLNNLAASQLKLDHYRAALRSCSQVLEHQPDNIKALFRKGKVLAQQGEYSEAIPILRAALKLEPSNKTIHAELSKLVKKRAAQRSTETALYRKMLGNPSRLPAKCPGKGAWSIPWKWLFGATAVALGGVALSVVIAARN
# Results are given in words; binding and its absence hold for the method and conditions named. In cells and extracts the contact can be indirect. Some binding calls cover weakened binding; strength is not graded here.
# Molecular target: 0N4R wild-type human tau (human) (UniProt P10636)
# Test: co-IP; 500 ug lysate of stable HT22 cells (150 mM NaCl, 50 mM Tris-HCl, 1 mM EDTA, 1 mM EGTA, 0.5% NP-40, pH 7.4) incubated with rabbit anti-tau (DAKO) or rabbit IgG control overnight at 4°C, protein A/G magnetic agarose beads; blot with mouse anti-FKBP8
substance,measurement,value
FK506-binding protein prolyl isomerase 8 (FKBP8/FKBP38) (from UniProt O35465 1-402),binding,binds
